In the supplement of paper PMC10849652:
This is one part of the list.

Chains of the proteins cited; added tags and fusions are not shown. Lines headed by an entry give the natural chain unless they say otherwise; changes in a name come on top.
UniProt Q9Y6M0: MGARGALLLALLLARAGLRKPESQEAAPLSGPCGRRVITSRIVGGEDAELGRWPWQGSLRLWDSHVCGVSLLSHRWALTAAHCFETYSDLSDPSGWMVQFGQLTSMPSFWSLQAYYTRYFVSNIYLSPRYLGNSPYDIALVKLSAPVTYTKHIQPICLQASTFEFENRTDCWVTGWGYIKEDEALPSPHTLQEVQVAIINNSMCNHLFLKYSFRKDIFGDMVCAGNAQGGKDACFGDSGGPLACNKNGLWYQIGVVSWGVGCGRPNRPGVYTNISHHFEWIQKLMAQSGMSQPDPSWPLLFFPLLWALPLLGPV
UniProt P49720: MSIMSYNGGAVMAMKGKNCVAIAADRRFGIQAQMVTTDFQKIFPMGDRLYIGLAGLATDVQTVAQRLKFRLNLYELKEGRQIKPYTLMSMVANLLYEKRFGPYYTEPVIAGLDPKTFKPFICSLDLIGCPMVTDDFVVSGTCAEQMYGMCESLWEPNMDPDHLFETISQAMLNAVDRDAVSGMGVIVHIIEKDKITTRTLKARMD
UniProt Q9UNM6: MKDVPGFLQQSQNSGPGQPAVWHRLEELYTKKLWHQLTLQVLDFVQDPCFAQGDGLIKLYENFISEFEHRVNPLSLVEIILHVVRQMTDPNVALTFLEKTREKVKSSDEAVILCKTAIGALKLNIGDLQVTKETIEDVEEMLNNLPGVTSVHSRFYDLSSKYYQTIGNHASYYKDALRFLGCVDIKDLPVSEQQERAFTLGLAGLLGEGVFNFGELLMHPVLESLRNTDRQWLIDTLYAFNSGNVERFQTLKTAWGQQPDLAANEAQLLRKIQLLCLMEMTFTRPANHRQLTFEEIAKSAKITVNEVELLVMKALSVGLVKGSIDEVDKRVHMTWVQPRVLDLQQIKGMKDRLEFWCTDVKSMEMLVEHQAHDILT
UniProt P61289: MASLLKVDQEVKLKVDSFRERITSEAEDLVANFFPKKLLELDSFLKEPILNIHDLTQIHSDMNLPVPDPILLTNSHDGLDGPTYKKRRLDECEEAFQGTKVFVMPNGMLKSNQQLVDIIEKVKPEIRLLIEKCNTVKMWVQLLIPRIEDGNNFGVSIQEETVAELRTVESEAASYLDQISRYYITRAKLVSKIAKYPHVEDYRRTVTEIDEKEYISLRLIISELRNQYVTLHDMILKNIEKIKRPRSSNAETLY
UniProt Q9UL46, whole entry, looked up: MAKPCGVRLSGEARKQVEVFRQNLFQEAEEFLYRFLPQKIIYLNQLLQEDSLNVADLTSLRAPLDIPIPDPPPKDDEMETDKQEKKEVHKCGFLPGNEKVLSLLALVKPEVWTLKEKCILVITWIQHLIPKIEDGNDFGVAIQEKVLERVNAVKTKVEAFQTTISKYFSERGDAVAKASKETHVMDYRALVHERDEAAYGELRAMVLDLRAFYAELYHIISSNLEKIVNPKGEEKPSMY
UniProt Q8TB72: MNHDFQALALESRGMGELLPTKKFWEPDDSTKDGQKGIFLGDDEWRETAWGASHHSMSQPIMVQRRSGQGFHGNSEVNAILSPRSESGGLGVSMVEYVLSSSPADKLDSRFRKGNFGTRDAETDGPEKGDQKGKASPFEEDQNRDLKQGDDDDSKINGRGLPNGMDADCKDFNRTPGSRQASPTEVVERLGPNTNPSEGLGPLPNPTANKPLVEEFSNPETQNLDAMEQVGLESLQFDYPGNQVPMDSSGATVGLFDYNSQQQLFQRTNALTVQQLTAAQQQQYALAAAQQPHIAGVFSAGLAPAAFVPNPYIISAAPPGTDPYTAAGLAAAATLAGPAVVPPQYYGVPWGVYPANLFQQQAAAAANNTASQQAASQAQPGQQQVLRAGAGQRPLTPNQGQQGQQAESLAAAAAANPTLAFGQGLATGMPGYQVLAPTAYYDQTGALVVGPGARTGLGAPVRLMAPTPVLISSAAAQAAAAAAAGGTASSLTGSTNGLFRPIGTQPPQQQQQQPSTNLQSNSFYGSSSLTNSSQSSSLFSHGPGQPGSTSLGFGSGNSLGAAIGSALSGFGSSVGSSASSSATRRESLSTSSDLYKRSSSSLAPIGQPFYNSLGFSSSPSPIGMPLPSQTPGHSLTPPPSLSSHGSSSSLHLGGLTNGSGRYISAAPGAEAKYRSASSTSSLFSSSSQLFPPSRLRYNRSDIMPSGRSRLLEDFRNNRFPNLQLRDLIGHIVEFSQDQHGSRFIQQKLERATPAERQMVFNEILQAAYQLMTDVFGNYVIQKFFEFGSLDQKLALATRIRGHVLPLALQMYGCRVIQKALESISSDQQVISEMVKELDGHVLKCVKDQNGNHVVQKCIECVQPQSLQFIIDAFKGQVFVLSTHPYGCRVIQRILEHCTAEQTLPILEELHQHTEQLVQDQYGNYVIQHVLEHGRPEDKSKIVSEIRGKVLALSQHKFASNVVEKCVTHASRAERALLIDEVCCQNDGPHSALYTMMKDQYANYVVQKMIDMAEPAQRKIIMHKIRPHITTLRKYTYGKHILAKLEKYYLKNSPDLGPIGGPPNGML
UniProt P20962: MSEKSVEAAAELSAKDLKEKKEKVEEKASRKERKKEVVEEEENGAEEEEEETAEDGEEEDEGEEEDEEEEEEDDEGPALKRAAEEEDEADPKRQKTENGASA
UniProt O95758: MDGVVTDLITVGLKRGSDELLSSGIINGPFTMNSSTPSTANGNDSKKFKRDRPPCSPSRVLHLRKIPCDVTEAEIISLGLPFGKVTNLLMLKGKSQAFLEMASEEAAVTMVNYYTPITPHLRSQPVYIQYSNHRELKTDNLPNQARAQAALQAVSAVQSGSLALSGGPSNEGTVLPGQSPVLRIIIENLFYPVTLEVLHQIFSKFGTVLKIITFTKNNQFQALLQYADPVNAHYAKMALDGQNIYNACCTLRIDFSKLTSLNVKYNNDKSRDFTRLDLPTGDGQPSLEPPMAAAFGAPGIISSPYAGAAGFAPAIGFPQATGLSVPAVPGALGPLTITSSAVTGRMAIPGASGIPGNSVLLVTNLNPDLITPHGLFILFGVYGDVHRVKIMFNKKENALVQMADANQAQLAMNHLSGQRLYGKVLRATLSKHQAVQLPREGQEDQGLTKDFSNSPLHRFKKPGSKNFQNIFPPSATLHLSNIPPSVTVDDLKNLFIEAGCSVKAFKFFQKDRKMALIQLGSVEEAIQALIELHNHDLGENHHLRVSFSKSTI
UniProt O00487, whole entry, looked up: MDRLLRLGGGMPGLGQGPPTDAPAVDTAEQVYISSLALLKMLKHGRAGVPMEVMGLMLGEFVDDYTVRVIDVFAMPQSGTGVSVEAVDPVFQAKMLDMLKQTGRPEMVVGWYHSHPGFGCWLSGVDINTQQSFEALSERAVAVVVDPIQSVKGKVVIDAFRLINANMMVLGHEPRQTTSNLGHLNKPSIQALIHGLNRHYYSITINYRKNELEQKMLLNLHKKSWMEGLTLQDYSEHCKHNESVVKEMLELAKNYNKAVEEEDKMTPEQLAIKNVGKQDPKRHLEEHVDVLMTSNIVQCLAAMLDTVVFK
UniProt Q9UI38: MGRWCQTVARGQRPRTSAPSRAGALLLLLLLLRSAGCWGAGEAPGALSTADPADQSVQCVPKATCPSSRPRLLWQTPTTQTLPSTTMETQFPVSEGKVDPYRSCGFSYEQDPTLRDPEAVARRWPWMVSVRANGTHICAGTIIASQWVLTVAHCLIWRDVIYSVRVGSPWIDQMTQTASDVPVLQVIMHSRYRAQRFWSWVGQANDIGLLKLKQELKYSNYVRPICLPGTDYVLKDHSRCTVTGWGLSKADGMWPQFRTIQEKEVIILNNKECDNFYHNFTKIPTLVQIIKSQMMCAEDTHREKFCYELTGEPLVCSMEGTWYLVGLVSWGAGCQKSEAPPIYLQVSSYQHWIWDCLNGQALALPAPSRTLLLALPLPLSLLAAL
UniProt P28062: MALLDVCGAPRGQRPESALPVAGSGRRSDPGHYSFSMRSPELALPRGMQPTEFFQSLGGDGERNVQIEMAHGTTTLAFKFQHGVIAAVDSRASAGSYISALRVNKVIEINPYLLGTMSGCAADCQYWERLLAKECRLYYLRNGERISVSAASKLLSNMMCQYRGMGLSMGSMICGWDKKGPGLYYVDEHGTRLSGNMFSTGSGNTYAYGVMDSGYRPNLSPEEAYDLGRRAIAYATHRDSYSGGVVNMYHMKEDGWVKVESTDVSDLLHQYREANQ
UniProt P35236: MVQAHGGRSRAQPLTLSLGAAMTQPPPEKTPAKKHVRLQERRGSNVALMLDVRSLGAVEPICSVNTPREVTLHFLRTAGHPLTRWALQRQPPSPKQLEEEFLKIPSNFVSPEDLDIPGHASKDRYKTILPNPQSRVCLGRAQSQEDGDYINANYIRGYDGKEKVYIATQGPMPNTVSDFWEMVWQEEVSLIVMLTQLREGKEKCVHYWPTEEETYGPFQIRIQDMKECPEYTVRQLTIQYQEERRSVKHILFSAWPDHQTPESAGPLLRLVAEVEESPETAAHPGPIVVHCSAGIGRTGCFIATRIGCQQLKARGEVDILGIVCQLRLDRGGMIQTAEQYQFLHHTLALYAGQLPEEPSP
UniProt P48634: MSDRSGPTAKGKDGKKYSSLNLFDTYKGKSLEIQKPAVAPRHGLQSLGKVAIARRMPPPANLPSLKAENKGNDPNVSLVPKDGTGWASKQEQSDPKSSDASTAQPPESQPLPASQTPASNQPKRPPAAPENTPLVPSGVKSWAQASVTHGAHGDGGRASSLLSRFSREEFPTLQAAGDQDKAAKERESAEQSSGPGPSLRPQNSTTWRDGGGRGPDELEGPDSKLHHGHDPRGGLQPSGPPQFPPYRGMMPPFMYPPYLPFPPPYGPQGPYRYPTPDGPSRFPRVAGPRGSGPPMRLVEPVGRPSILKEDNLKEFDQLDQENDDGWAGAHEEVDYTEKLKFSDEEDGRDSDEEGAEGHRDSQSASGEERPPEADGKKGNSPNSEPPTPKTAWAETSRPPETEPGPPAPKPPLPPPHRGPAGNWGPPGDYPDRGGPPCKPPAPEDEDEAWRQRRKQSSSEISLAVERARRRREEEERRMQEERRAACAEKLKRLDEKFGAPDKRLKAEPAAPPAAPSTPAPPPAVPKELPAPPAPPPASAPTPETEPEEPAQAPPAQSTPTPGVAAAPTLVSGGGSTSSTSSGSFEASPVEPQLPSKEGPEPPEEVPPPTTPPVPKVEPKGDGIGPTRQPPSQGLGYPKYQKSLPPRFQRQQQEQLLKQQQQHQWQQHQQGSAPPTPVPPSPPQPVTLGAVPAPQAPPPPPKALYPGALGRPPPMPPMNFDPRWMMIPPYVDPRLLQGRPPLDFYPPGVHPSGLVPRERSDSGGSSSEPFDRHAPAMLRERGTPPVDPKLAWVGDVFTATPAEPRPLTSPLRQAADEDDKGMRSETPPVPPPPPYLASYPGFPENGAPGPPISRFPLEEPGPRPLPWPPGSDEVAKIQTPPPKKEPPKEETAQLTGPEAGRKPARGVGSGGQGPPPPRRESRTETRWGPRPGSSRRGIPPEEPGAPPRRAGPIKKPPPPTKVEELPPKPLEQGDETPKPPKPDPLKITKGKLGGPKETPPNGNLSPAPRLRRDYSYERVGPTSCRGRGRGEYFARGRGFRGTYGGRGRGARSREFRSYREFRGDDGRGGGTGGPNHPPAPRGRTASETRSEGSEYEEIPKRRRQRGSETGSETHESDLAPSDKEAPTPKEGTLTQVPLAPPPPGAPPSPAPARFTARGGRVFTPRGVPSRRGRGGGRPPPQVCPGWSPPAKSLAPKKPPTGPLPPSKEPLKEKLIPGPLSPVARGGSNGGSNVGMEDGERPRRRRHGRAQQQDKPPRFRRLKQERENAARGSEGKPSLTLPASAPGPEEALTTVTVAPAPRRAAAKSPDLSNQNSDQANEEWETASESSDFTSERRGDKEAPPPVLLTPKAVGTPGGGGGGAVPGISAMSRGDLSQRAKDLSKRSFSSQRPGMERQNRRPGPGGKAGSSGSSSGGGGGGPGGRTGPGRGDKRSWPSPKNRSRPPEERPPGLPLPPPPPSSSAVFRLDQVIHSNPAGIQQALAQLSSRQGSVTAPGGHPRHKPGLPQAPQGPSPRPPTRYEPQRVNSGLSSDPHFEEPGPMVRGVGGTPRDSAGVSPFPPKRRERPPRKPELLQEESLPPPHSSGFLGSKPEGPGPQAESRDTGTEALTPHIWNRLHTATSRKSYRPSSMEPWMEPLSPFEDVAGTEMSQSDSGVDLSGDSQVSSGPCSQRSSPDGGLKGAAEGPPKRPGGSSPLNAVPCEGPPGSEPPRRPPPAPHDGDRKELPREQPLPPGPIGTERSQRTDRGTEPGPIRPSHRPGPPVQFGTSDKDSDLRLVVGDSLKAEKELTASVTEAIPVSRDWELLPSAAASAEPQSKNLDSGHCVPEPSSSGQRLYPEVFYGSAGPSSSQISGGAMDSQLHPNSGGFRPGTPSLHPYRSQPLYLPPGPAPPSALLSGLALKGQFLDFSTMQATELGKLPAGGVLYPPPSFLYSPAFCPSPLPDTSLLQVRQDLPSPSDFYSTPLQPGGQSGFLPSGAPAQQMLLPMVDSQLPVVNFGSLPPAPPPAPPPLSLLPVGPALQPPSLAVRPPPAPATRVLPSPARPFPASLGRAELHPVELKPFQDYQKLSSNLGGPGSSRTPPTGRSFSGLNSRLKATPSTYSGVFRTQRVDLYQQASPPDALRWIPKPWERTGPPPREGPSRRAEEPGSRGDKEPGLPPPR

Compound: C[C@H](Nc1ncnc2nc[nH]c12)c1cc2cccc(Cl)c2c(=O)n1-c1ccccc1 [duvelisib]
Assay: log2 fold change, soluble protein after heating vs DMSO (PISA); higher = thermal stabilisation; K562 lysate, 10 uM; active = over 0.2 and 3.5 SD of the protein, either way, in both replicates (recomputed)
How it was run: (§1)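 Pellets of K562 cells were dounce-homogenised in PBS pH 7.4 with 1 mM MgCl2, and the crude extract was held at 1 mg/mL protein for a 30 min treatment with 10 μM compound. Aliquots were heated for 3 min over 48°C-58°C and pooled before NP-40 was added to 0.5% at 4°C. The supernatant from 21,000xg for 90 min was quantified by TMTpro 16plex LC-MS/MS with channel sums equalised. Values are reported from duplicates as log-two fold change in thermal stability relative to solvent controls.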

log2 fold change, inactive:
PRSS21 (UniProt Q9Y6M0) -0.003
PSMB3 (UniProt P49720) 0.044
PTPA isoform 2 (UniProt Q15257) 0.014
PSMD13 (UniProt Q9UNM6) 0.006
PTEN isoform 2 (UniProt P60484) -0.008
PRSS8 (UniProt Q16651) -0.036
PTK2 (UniProt Q05397) -0.076
PSME3 isoform 2 (UniProt P61289) 0.04
PSME2 (UniProt Q9UL46) 0.062
PUM2 (UniProt Q8TB72) -0.044
PRXL2A (UniProt Q9BRX8) 0.009
PRPH isoform 2 (UniProt P41219) 0.051
PTMS (UniProt P20962) 0
PTBP3 isoform 4 (UniProt O95758) -0.02
PTCD3 (UniProt Q96EY7) 0.023
PRR14L (UniProt Q5THK1) 0.04
PSMD14 (UniProt O00487) 0
PRSS50 (UniProt Q9UI38) -0.109
PTOV1 (UniProt Q86YD1) 0.202
PSMB10 (UniProt P40306) 0.069
PWWP2B (UniProt Q6NUJ5) -0.014
PSMB8 (UniProt P28062) 0.052
PSEN2 (UniProt P49810) 0.084
PTPN7 isoform 3 (UniProt P35236) -0.006
PRRC2A (UniProt P48634) -0.001

Compound: Cc1cc(Nc2cc(CN3CCOCC3)c3nc(C)c(Cc4ccc(Cl)cc4F)n3n2)n[nH]1 [gandotinib]
Assay: as above
How it was run: as §1

log2 fold change, inactive:
PTRH1 (UniProt Q86Y79) -0.01
PRSS21 (UniProt Q9Y6M0) 0.029
PSMB3 (UniProt P49720) 0.062
PTPA isoform 2 (UniProt Q15257) 0.03
PSMD13 (UniProt Q9UNM6) -0.086
PSMF1 (UniProt Q5QPM7) 0.1
PTPRF (UniProt P10586) -0.093
PTEN isoform 2 (UniProt P60484) 0.075
PRSS8 (UniProt Q16651) -0.091
PTK2 (UniProt Q05397) 0.396
PSME3 isoform 2 (UniProt P61289) -0.015
PSME2 (UniProt Q9UL46) 0.093
PUM2 (UniProt Q8TB72) -0.15
PRXL2A (UniProt Q9BRX8) -0.018
PSMB2, A0A087WVV1 0.137
PRPH isoform 2 (UniProt P41219) -0.08
PTMS (UniProt P20962) 0.025
PTBP3 isoform 4 (UniProt O95758) 0.022
PTCD3 (UniProt Q96EY7) -0.087
PRR4 (UniProt Q16378) -0.34
PSMD4 (UniProt Q5VWC4) 0.093
PRR12 (UniProt Q9ULL5) 0.057
PRR14L (UniProt Q5THK1) -0.174
PUF60 isoform 2 (UniProt Q9UHX1) -0.09
PSMD14 (UniProt O00487) -0.067
PRSS50 (UniProt Q9UI38) -0.116
PTOV1 (UniProt Q86YD1) -0.03
PTPRJ (UniProt Q12913) 0.003
PSMB10 (UniProt P40306) 0.009
PWWP2B (UniProt Q6NUJ5) -0.385
PSMB8 (UniProt P28062) -0.018
PSIP1 (UniProt V9GYT7) -0.018
PSEN2 (UniProt P49810) 0.189
PTPN7 isoform 3 (UniProt P35236) 0.056
PRRC2A (UniProt P48634) 0.007
PSMA7 (UniProt H0Y586) 0.17

Compound: Cc1cc(Nc2cc(N3CCN(C)CC3)nc(Sc3ccc(NC(=O)C4CC4)cc3)n2)n[nH]1 [tozasertib]
Assay: as above
How it was run: as §1

log2 fold change, inactive:
PTRH1 (UniProt Q86Y79) 0.298
PRSS21 (UniProt Q9Y6M0) -0.037
PSMB3 (UniProt P49720) 0.037
PTPA isoform 2 (UniProt Q15257) -0.003
PSMD13 (UniProt Q9UNM6) 0.006
PSMF1 (UniProt Q5QPM7) -0.119
PTEN isoform 2 (UniProt P60484) -0.033
PTK2 (UniProt Q05397) 0.026
PSME3 isoform 2 (UniProt P61289) 0.025
PSME2 (UniProt Q9UL46) 0.028
PUM2 (UniProt Q8TB72) 0.031
PSMB2, A0A087WVV1 0.086
PRPH isoform 2 (UniProt P41219) 0.096
PTMS (UniProt P20962) -0.009
PTBP3 isoform 4 (UniProt O95758) 0.006
PTCD3 (UniProt Q96EY7) 0.005
PRR4 (UniProt Q16378) 0.412
PRR14L (UniProt Q5THK1) 0.07
PUF60 isoform 2 (UniProt Q9UHX1) -0.161
PSMD14 (UniProt O00487) -0.003
PRSS50 (UniProt Q9UI38) 0.025
PTPRJ (UniProt Q12913) 0.025
PSMB10 (UniProt P40306) 0.101
PSMB8 (UniProt P28062) -0.006
PSEN2 (UniProt P49810) 0
PTPN7 isoform 3 (UniProt P35236) 0
PRRC2A (UniProt P48634) -0.013
